The name of at least one read-out is uncertain.
System: INS-1 cells
Experiment: Cell viability assay: protection of INS-1 cells from tunicamycin (Tm)-induced loss of viability (CellTiter-Glo, intracellular ATP)
Format: cell-based, rat
Conditions: % rescue from Tm (0.15 μg/mL)-induced reduction of INS-1 cell viability (intracellular ATP); Tm alone 0%, DMSO without Tm 100%; 72 h
Experimental: INS-1 cells were resuspended in RPMI 1640 medium containing 10% FBS and seeded at 5×10^3 cells/well in a 384-well plate. After overnight 24 h incubation, compounds were added to the wells at the indicated concentration using a pin-transfer robot (PerkinElmer). Tm in RPMI 1640 medium containing 10% FBS was then added at a final concentration of 0.15 μg/mL. After 72 h, the medium was removed and 20 μL of CellTiter-Glo reagent (Promega) was added. Luminescence was measured 10 min later using a Synergy Neo2 plate reader (Biotek).
Hydroxy benzamide (HBA) derivatives were synthesized based on various scaffolds and evaluated for their viability of rat INS-1 β cells in the presence of tunicamycin (Tm), a potent ER stress inducer that inhibits N-linked glycosylation of proteins. The maximum activities and the concentrations that reach half-maximal activity (EC50) of the compounds were evaluated by the degree of increase in viability of INS-1 cells co-treated with the compounds in the presence of Tm compared with Tm treatment alone.

O=C(Cc1cccc(O)c1)NCc1ccc(C(F)(F)F)cc1 [Compound 4a, 2-(3-Hydroxyphenyl)-N-(4-(trifluoromethyl)benzyl)acetamide]
Maximum % of Protection: 36%
